PubChem BioAssay AID1259424 | University of Nebraska Medical Center – 2018

Test: 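Seek colon cancer survival genes behaving like KSR1, using a six-gene signature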 (primary screen)
System: human HCT116 colon cancer cells
Knock-down reagent: siRNA pool against human genes, 50 nM
Measurement: 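Log2 levels of six mRNAs (branched-DNA multiplex), adjusted by two reference genes and the non-targeting median, then scored against the average KSR1 knockdown pattern as Pearson r and euclidean distance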
Reading the numbers: mean correlation with KSR1 profile and KSR1 correlation: higher = expression change more like KSR1 knockdown; mean distance from KSR1 profile: higher = expression change less like KSR1 knockdown
Shown is an unselected part of about 14,000 reagents tested. 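Higher correlation or smaller distance means closer resemblance to KSR1 loss; control wells, including KSR1 knockdowns, recur on many plates.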 Not given: the time to read-out.

gene,mean correlation with KSR1 profile,mean distance from KSR1 profile,"KSR1 correlation, replicate 1","KSR1 correlation, replicate 2","KSR1 correlation, replicate 3"
ATMIN,0.524,2.04,0.523,0.572,0.373
PAPSS2,-0.395,2.41,-0.18,-0.341,-0.4
CHMP3,-0.624,3.31,-0.603,-0.743,-0.582
COX6A1,-0.263,1.76,-0.0666,-0.396,-0.547
TFF3,-0.65,1.61,-0.52,-0.714,-0.399
TPTE,-0.509,1.79,-0.575,-0.669,-0.182
YIPF4,0.808,1.34,0.738,0.767,0.806
PCBP1,-0.551,2.21,-0.387,-0.232,-0.711
LRRC47,-0.603,2.67,-0.578,-0.389,-0.514
CDKL3,0.586,0.983,0.315,0.0111,0.305
PTPRA,-0.42,3.62,-0.282,-0.615,-0.508
NEDD4,0.131,1.23,-0.105,-0.098,0.24
LRIT1,-0.563,3.35,-0.256,-0.671,-0.646
HPCAL4,-0.683,3.17,-0.712,-0.5,-0.612
COMMD4,-0.149,1.91,0.0365,-0.251,-0.274
KCNK5,-0.344,2.51,-0.295,-0.229,-0.312
NOL11,-0.234,5.77,-0.188,-0.323,-0.264
CD70,-0.255,1.88,-0.0436,-0.44,-0.393
CSAG1,-0.564,3.69,-0.58,-0.501,-0.615
ACAA1,-0.377,5.13,-0.219,-0.36,-0.508
PAX8,-0.191,4,-0.0454,-0.156,-0.386
RGS1,0.72,1.61,0.832,0.672,0.599
DENND1A,0.00147,2.05,-0.207,0.149,-0.0578
MPDU1,-0.196,4.2,-0.222,-0.099,-0.14
GIMAP6,0.862,2.3,0.872,0.893,0.864
TNFRSF8,0.377,2.85,0.379,0.291,0.425
APPL1,0.344,3.14,0.357,0.285,0.0382
SLCO2A1,0.683,1.17,0.771,0.448,0.641
NPAS4,-0.751,1.32,-0.827,-0.499,-0.408
POLR1HASP,0.263,2.1,0.0402,0.148,0.228
NECAP1,0.0726,1.98,0.263,-0.204,0.0564
FNDC1,0.777,1.48,0.78,0.747,0.185
NOX5,0.545,0.892,0.501,0.553,0.606
TLE1,-0.468,2.48,-0.414,-0.32,-0.78
RAB27B,0.801,0.708,0.67,0.894,0.549
KLHL5,0.0442,2.49,-0.0554,0.135,0.022
MTG2,-0.187,1.64,0.0603,-0.463,-0.229
MEF2C,-0.00209,2.18,0.379,0.286,-0.287
POLR1D,0.674,1.25,0.749,0.546,0.618
TBX2,0.769,0.859,0.771,0.679,0.77
WFDC1,0.654,0.929,0.659,0.62,0.488
MDFI,0.378,2.19,0.161,0.391,0.381
P2RY12,0.399,1.65,0.502,0.556,0.1
ANAPC4,-0.35,1.89,-0.394,-0.413,-0.29
HTRA2,0.631,1.33,0.515,0.648,0.401
GPX5,-0.256,2.86,-0.385,-0.253,-0.316
AASDHPPT,-0.137,2.18,0.228,-0.0547,-0.289
LRCH3,0.733,1.44,0.525,0.58,0.801
APLN,0.0924,1.42,0.366,-0.158,0.207
ZNF143,-0.137,3.31,0.206,-0.0754,-0.323

5 entries from above, reformatted.
CD70: mean correlation with KSR1 profile = -0.255; mean distance from KSR1 profile = 1.88; KSR1 correlation, replicate 1 = -0.0436; KSR1 correlation, replicate 2 = -0.44; KSR1 correlation, replicate 3 = -0.393
CSAG1: mean correlation with KSR1 profile = -0.564; mean distance from KSR1 profile = 3.69; KSR1 correlation, replicate 1 = -0.58; KSR1 correlation, replicate 2 = -0.501; KSR1 correlation, replicate 3 = -0.615
ACAA1: mean correlation with KSR1 profile = -0.377; mean distance from KSR1 profile = 5.13; KSR1 correlation, replicate 1 = -0.219; KSR1 correlation, replicate 2 = -0.36; KSR1 correlation, replicate 3 = -0.508
PAX8: mean correlation with KSR1 profile = -0.191; mean distance from KSR1 profile = 4; KSR1 correlation, replicate 1 = -0.0454; KSR1 correlation, replicate 2 = -0.156; KSR1 correlation, replicate 3 = -0.386
RGS1: mean correlation with KSR1 profile = 0.72; mean distance from KSR1 profile = 1.61; KSR1 correlation, replicate 1 = 0.832; KSR1 correlation, replicate 2 = 0.672; KSR1 correlation, replicate 3 = 0.599
